In the supplement of paper PMC10849652:
Some of the results follow.

The chains behind the UniProt entries cited, without tags or fusion partners. Where a name states a change or a piece, a line headed by the entry shows the natural chain unless it says otherwise.
UniProt Q03154: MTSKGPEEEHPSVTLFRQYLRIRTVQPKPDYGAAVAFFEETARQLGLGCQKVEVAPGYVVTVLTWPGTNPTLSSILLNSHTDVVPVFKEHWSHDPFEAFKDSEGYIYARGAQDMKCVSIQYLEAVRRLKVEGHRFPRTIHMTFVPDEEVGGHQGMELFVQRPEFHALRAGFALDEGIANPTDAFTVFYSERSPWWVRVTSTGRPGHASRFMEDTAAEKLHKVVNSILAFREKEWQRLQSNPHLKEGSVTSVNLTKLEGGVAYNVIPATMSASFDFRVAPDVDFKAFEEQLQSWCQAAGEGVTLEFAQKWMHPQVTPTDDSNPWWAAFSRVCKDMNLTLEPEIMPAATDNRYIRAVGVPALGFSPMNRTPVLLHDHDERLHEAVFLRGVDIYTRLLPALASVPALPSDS
UniProt O95870: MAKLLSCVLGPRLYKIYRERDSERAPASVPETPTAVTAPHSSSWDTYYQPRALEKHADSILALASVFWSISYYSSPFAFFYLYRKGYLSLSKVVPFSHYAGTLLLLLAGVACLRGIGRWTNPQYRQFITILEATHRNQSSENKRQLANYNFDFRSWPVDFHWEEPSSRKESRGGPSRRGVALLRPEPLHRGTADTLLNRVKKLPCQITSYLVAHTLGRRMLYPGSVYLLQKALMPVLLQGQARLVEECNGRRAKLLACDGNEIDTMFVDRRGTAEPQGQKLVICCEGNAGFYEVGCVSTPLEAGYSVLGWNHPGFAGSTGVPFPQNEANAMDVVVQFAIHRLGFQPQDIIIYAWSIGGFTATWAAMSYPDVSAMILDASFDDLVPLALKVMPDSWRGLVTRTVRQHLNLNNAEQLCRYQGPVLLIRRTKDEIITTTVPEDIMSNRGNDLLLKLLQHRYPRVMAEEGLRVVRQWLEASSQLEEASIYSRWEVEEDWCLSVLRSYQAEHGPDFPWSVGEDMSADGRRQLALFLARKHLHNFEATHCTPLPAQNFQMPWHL
UniProt P24666: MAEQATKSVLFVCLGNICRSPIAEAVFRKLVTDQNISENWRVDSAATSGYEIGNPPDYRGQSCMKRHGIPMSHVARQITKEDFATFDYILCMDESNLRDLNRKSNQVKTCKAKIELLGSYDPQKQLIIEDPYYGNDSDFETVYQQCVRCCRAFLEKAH
UniProt P11310: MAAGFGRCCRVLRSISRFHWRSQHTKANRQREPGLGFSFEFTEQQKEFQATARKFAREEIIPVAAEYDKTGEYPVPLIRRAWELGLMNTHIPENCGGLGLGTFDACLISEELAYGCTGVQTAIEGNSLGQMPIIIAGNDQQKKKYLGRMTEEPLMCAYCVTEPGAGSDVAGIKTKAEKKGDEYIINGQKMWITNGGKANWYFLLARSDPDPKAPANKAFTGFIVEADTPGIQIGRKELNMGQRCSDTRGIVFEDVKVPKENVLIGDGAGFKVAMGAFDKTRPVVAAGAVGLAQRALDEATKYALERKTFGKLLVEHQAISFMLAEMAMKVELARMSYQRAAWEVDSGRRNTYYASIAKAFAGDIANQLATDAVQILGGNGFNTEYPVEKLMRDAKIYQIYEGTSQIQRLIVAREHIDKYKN
UniProt Q96GS6: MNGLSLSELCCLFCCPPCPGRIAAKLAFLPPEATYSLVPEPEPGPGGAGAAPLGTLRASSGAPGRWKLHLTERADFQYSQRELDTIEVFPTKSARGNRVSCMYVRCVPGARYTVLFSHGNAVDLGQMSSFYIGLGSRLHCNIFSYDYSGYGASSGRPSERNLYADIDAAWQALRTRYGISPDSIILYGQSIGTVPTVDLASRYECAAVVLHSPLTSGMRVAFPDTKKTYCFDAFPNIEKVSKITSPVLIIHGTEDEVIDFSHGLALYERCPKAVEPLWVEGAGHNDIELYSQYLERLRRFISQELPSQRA
UniProt O60488: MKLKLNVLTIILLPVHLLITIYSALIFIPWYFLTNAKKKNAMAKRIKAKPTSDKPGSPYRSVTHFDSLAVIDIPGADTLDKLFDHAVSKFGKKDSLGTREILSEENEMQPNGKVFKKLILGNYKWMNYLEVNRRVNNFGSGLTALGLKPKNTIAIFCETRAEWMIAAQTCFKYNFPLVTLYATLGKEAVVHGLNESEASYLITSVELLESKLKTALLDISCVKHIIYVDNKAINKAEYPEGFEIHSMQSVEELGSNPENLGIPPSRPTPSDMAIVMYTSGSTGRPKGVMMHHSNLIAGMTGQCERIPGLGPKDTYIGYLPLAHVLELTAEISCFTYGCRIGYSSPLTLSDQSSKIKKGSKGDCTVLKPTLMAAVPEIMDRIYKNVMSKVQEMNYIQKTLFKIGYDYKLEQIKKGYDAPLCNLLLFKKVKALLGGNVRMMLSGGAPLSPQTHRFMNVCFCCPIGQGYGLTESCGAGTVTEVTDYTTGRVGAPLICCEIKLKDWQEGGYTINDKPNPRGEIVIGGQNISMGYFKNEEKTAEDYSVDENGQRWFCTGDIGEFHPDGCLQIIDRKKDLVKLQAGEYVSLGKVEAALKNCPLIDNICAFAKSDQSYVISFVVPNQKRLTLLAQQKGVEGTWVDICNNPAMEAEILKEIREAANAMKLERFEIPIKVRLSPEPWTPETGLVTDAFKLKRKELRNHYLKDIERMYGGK
UniProt P07311: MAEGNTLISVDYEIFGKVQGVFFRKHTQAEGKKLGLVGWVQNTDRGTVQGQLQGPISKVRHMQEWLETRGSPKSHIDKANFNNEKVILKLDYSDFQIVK
UniProt Q8N2K0: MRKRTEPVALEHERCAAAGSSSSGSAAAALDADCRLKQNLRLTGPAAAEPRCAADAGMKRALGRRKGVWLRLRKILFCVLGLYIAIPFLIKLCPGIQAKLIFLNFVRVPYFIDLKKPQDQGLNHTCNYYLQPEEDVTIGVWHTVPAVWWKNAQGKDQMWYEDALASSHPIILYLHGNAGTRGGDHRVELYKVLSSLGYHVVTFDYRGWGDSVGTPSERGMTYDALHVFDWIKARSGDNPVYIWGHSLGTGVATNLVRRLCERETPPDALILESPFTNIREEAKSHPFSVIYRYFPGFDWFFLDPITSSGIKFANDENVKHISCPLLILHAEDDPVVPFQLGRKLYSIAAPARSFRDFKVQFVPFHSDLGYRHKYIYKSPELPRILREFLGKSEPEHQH
UniProt P53396: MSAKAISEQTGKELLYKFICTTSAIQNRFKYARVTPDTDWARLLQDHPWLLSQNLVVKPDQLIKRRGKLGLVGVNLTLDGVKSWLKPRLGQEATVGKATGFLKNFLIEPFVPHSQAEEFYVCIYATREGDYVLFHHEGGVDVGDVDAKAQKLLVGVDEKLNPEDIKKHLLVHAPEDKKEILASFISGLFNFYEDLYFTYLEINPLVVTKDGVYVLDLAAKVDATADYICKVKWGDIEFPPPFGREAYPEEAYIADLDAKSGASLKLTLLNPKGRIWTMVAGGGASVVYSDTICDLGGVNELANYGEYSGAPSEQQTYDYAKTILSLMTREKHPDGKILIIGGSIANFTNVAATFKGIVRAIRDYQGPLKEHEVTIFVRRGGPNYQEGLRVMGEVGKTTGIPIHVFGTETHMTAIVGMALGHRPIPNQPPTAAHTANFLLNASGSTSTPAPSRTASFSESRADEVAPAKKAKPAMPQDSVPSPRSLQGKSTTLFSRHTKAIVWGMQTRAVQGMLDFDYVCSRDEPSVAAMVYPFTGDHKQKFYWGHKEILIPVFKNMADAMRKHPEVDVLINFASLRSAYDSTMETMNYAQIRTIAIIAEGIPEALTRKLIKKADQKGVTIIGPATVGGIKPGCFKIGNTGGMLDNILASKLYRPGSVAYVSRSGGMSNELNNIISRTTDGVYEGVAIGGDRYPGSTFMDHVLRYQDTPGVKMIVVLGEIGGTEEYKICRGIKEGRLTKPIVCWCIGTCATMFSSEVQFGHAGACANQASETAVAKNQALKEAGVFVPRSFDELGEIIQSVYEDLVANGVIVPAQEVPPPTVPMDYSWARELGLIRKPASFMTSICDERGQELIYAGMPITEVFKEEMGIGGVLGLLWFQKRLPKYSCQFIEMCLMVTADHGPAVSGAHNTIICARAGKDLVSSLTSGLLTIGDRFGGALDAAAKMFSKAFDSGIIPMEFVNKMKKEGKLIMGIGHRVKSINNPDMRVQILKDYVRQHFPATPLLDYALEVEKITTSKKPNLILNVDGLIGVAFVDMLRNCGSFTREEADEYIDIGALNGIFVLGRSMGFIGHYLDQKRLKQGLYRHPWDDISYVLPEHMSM
UniProt Q96QU6: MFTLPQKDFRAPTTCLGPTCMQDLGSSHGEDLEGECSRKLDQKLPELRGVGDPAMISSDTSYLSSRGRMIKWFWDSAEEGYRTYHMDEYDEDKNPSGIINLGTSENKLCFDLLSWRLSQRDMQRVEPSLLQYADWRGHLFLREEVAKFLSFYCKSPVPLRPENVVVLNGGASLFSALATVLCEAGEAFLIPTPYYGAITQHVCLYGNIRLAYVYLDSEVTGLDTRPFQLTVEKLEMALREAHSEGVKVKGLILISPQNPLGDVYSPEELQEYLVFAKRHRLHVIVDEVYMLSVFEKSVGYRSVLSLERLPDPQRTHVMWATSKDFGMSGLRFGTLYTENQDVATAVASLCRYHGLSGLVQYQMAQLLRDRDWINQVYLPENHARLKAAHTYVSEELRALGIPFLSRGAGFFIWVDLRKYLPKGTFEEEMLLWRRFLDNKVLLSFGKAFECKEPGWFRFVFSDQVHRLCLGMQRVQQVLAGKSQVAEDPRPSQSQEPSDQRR
UniProt P33897: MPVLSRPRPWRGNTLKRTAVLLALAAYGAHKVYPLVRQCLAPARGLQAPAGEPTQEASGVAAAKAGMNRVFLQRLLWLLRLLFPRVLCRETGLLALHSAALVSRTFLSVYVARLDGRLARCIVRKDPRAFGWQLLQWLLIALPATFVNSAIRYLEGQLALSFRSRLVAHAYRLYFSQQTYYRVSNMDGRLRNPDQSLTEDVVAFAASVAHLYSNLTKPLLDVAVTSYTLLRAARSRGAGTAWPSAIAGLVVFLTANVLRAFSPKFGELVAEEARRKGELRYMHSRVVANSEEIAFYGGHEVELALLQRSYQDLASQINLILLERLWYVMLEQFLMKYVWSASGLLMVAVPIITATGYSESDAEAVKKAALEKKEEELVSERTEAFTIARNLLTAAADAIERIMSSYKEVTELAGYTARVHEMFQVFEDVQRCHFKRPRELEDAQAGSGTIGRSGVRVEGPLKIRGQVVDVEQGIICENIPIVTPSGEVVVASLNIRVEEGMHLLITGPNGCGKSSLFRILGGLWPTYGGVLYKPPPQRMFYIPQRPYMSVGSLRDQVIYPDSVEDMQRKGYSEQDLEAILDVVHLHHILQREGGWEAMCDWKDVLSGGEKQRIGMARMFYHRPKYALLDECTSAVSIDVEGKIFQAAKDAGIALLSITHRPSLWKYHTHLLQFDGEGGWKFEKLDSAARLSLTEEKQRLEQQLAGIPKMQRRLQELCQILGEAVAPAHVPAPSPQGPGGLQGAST
UniProt O14734: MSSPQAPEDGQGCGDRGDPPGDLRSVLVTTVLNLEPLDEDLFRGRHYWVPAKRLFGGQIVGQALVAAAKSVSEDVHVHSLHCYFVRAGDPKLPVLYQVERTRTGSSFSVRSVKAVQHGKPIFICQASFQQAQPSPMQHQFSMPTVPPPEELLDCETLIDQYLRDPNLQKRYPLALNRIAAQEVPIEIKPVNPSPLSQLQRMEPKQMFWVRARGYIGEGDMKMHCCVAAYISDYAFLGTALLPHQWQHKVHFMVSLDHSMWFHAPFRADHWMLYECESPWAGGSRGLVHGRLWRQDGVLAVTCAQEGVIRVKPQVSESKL
UniProt Q5T8D3: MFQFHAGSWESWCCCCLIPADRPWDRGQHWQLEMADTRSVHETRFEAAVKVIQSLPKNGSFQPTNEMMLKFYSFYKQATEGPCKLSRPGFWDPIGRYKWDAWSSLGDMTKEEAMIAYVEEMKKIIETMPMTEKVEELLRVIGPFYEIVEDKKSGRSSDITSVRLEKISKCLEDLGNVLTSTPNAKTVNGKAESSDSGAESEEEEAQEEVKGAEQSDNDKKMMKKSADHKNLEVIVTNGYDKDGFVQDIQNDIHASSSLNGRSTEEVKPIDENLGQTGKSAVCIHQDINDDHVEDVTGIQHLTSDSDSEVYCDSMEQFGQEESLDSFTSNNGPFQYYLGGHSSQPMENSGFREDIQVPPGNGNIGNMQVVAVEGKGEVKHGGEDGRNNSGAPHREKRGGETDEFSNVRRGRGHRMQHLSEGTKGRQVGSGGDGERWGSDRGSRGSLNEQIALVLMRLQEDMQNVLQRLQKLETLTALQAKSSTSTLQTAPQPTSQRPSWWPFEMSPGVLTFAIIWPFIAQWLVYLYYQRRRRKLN
UniProt Q7L211: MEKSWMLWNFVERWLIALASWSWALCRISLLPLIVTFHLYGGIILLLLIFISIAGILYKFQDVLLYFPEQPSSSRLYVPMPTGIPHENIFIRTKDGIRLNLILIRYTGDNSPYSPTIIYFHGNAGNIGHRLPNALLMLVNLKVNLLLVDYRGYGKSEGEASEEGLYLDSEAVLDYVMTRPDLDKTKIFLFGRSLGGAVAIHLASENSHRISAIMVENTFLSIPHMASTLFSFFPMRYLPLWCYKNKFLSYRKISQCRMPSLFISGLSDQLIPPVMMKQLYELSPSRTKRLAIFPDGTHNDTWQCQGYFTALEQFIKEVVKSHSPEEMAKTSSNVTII

Tests used:
Assay in all cases: log2 fold change, soluble protein after heating vs DMSO (PISA); higher = thermal stabilisation; K562 cells, 10 uM, 30 min; active = over 0.2 and 3.5 SD of the protein, either way, in both replicates (recomputed)
[1] = compound: C1=CC=C(C=C1)[C@H](COC2=CC3=C(C=C2)NC(=O)N3)NC(=O)C4=CC=CN(C4=O)CC5=CC(=C(C=C5)F)F
Method in brief: (§1)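 K562 cells (2×10^6 cells/mL) were treated with 10 μM compound for 30 min, and aliquots were heated for 3 min over 48°C-58°C. Pooled aliquots were extracted in PBS with 0.5% NP-40 at 4°C, and the supernatant after 21,000xg for 90 min was measured by TMTpro 16plex LC-MS/MS with channel sums equalised. Reported thermal stability, relative to control samples and from duplicates, is a log2 fold change.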

[2] = compound: CC1=C(SC2=C1C(=N[C@H](C3=NN=C(N32)C)CC(=O)N)C4=CC=C(C=C4)Cl)C
Method in brief: as §1

[3] = compound: CC1=C2C(=CC=C1)N=C(N(C2=O)C3=CC=CC=C3C)CN4C=NC5=C(N=CN=C54)N
Method in brief: as §1

[4] = compound: Cc1sc2c(c1C)C(c1ccc(Cl)cc1)=N[C@@H](CC(=O)OC(C)(C)C)c1nnc(C)n1-2
Method in brief: as §1

[5] = compound: c1ccc([C@@H]2C[C@H]2NC2CCNCC2)cc1
Method in brief: as §1

Measured: log2 fold change

ADA (UniProt P00813)
inactive: [1] 0.008 | [2] 0.05 | [3] 0.034 | [4] 0.065 | [5] 0.043

ABCC4 (UniProt O15439)
inactive: [1] -0.012 | [2] 0.064 | [3] 0.051 | [4] -0.026 | [5] 0.026

ACACB (UniProt O00763)
inactive: [1] -0.044 | [2] -0.053 | [3] 0.025 | [4] 0.084 | [5] 0.007

ACAD8 (UniProt Q9UKU7)
inactive: [1] -0.015 | [2] 0.046 | [3] 0.036 | [4] -0.045 | [5] -0.005

ACTN1 (UniProt P12814)
inactive: [1] 0.026 | [2] 0.037 | [3] 0.01 | [4] -0.047 | [5] 0.012

ACY1 (UniProt Q03154)
inactive: [1] 0.028 | [2] 0.057 | [3] 0.034 | [4] -0.018 | [5] -0.003

ABHD16A (UniProt O95870)
inactive: [1] -0.005 | [2] 0.011 | [3] 0.026 | [4] 0.066 | [5] -0.088

AAGAB (UniProt Q6PD74)
inactive: [1] -0.025 | [2] 0.044 | [3] 0.198 | [4] -0.03 | [5] 0.038

AAR2 (UniProt Q9Y312)
inactive: [1] 0.024 | [2] 0.08 | [3] -0.053 | [4] 0.069 | [5] -0.012

ACP1 (UniProt P24666)
inactive: [1] -0.058 | [2] -0.026 | [3] 0.184 | [4] -0.041 | [5] -0.416

ACTB, A0A2R8YEA7
inactive: [1] -0.012 | [2] 0.035 | [3] -0.36 | [4] -0.098 | [5] -0.259

ACAA1 (UniProt P09110)
inactive: [1] -0.015 | [2] 0.04 | [3] 0.055 | [4] -0.005 | [5] 0.022

AAAS (UniProt Q9NRG9)
inactive: [1] 0.015 | [2] 0.069 | [3] 0.036 | [4] -0.029 | [5] -0.014

AAMP (UniProt Q13685)
inactive: [1] -0.015 | [2] -0.013 | [3] 0.014 | [4] -0.032 | [5] 0.021

ACTR6 (UniProt Q9GZN1)
inactive: [1] 0.105 | [2] 0.044 | [3] 0.111 | [4] -0.08 | [5] -0.008

Pulled one by one from the list above (3):
ACTB, A0A2R8YEA7
inactive: [1] -0.012 | [2] 0.035 | [3] -0.36 | [4] -0.098 | [5] -0.259

ACTR6 (UniProt Q9GZN1)
inactive: [1] 0.105 | [2] 0.044 | [3] 0.111 | [4] -0.08 | [5] -0.008

AAAS (UniProt Q9NRG9)
inactive: [1] 0.015 | [2] 0.069 | [3] 0.036 | [4] -0.029 | [5] -0.014

Next results follow.

ABCA3 (UniProt Q99758)
inactive: [1] 0.239 | [2] 0.002 | [3] -0.05 | [4] 0.02 | [5] -0.035

ACADM isoform 2 (UniProt P11310)
inactive: [1] 0.007 | [2] 0.024 | [3] -0.015 | [4] -0.016 | [5] -0.031

ABHD17A isoform 2 (UniProt Q96GS6)
inactive: [1] 0.029 | [2] 0.079 | [3] 0.122 | [4] -0.148 | [5] -0.012

ACSL4 (UniProt O60488)
inactive: [1] -0.08 | [2] 0.1 | [3] 0.132 | [4] 0.025 | [5] -0.031

ABCF1 (UniProt Q8NE71)
inactive: [1] 0.03 | [2] -0.034 | [3] -0.046 | [4] 0.094 | [5] -0.026

ADAM17 (UniProt P78536)
inactive: [1] 0.014 | [2] 0.006 | [3] -0.01 | [4] 0.024 | [5] 0.019

ADAT2 (UniProt Q7Z6V5)
inactive: [1] -0.052 | [2] 0.01 | [3] 0.003 | [4] 0.027 | [5] -0.022

ACYP1 (UniProt P07311)
inactive: [1] -0.039 | [2] 0.086 | [3] 0.052 | [4] -0.024 | [5] -0.012

ABCB8 (UniProt Q9NUT2)
inactive: [1] -0.029 | [2] 0.075 | [3] 0.047 | [4] 0.015 | [5] -0.002

ACSF3 (UniProt Q4G176)
inactive: [1] 0.037 | [2] 0.086 | [3] 0.12 | [4] -0.067 | [5] 0.063

ABHD12 isoform 2 (UniProt Q8N2K0)
inactive: [1] 0.023 | [2] 0.006 | [3] -0.018 | [4] 0.023 | [5] -0.064

ACTN1 (UniProt H9KV75)
inactive: [1] -0.036 | [2] 0.099 | [3] 0.166 | [4] -0.195 | [5] -0.076

ABCB10 (UniProt Q9NRK6)
inactive: [1] 0.006 | [2] 0.008 | [3] -0.013 | [4] 0 | [5] 0.039

ABCD4 (UniProt O14678)
inactive: [1] 0.201 | [2] 0.058 | [3] 0.329 | [4] 0.113 | [5] 0.028

ACLY (UniProt P53396)
inactive: [1] 0.056 | [2] 0.036 | [3] 0.042 | [4] 0.009 | [5] -0.008

ACCS (UniProt Q96QU6)
inactive: [1] -0.469 | [2] 0.024 | [4] 0.08 | [5] 0.006

ABCD1 (UniProt P33897)
inactive: [2] 0.061 | [5] -0.093

ACOT8 (UniProt O14734)
inactive: [1] -0.004 | [2] 0.071 | [3] -0.029 | [4] -0.014 | [5] -0.027

ACTBL2 (UniProt Q562R1)
inactive: [1] -0.444 | [3] -0.201

A2ML1 (UniProt A8K2U0)
inactive: [3] 0.12 | [4] -0.509

ACBD5 (UniProt Q5T8D3)
inactive: [2] 0.018 | [3] 0.011 | [4] -0.075 | [5] -0.028

ABHD13 (UniProt Q7L211)
inactive: [1] -0.051 | [3] 0.034 | [4] -0.102

ACAT2 (UniProt Q9BWD1)
inactive: [1] -0.024 | [2] -0.018 | [3] 0.031 | [4] -0.052 | [5] -0.052

AAMDC (UniProt Q9H7C9)
inactive: [1] 0.005 | [2] 0.163 | [3] 0.176 | [4] -0.137 | [5] -0.044

ABHD5 (UniProt Q8WTS1)
inactive: [1] -0.041 | [2] 0.018 | [4] 0.076 | [5] 0.102

ACAT1, A0A5F9ZHJ0
inactive: [1] -0.082 | [2] 0.227 | [4] 0.097 | [5] 0.078

ACOX1 isoform 3 (UniProt Q15067)
inactive: [3] 0.579 | [4] 0.297

ACSL3 (UniProt O95573)
inactive: [1] -0.05 | [2] 0.068 | [3] 0.028 | [4] -0.014 | [5] -0.036

ABCB4 (UniProt P21439)
inactive: [3] -0.078 | [4] -0.119
